Results deposited as PubChem BioAssay AID1259254 (NCATS, 2017)
This is one part, drawn at random, of about 59,000 deposited reagents. About 1,550 of all reagents (2.6%) count as active. 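G2 share is only a proxy for re-replication; each gene was hit by three separate siRNAs, and active genes were retested.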 The numbers tell different reagents against one gene apart. Not all columns of the deposit are shown. The record does not give: the amount of reagent.

Purpose: 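Finding genes that stop cells copying their DNA twice in one cycle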 (primary screen)
System: human HCT116 colorectal cancer cells
Reagent: single siRNA against human genes
Duration: 3 days
Measurement: 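Imaged Hoechst DNA stain sorts each cell into a cycle phase by DNA amount; per plate, G2 fraction set to 0% for non-targeting and 100% for GMNN siRNA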
Direction: G2 robust z-score and G2 cells, % of GMNN control: higher = more G2 cells, more excess DNA replication
Active means: 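Active siRNAs have a G2 robust z of 5 or more median absolute deviations over the median, which in these data means about 38% or higher of GMNN control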

With DCST1 #1, what does the deposit list?
G2 robust z-score: -0.952; G2 cells, % of GMNN control: -3.73; Call: inactive

For DCST1 #2, how do the results read?
G2 robust z-score: -0.414; G2 cells, % of GMNN control: 0.0547; Call: inactive

Which result is listed for DCST1 #3?
G2 robust z-score: 0.204; G2 cells, % of GMNN control: 4.41; Call: inactive

With ZP4 #1, how do the results read?
G2 robust z-score: -0.362; G2 cells, % of GMNN control: 0.42; Call: inactive

What is on record for ZP4 #2?
G2 robust z-score: 1.35; G2 cells, % of GMNN control: 12.5; Call: inactive

With ZP4 #3, what does the deposit list?
G2 robust z-score: 1.37; G2 cells, % of GMNN control: 12.6; Call: inactive

How did the screen score DNAH3 #1?
G2 robust z-score: -0.107; G2 cells, % of GMNN control: 2.21; Call: inactive

What is on record for DNAH3 #2?
G2 robust z-score: 0.0255; G2 cells, % of GMNN control: 3.15; Call: inactive

With DNAH3 #3, what was measured?
G2 robust z-score: -0.554; G2 cells, % of GMNN control: -0.933; Call: inactive

Which result is listed for WFIKKN2 #1?
G2 robust z-score: 4.89; G2 cells, % of GMNN control: 37.4; Call: inactive

Which result is listed for WFIKKN2 #2?
G2 robust z-score: -0.933; G2 cells, % of GMNN control: -3.6; Call: inactive

For WFIKKN2 #3, how do the results read?
G2 robust z-score: -0.38; G2 cells, % of GMNN control: 0.294; Call: inactive

With TSHZ2 #1, how do the results read?
G2 robust z-score: 0.441; G2 cells, % of GMNN control: 6.07; Call: inactive

For TSHZ2 #2, what was measured?
G2 robust z-score: -0.796; G2 cells, % of GMNN control: -2.63; Call: inactive

With TSHZ2 #3, what does the deposit list?
G2 robust z-score: -1.19; G2 cells, % of GMNN control: -5.4; Call: inactive

What is on record for DOK1 #1?
G2 robust z-score: 2.79; G2 cells, % of GMNN control: 22.6; Call: inactive

For DOK1 #2, how do the results read?
G2 robust z-score: -1.06; G2 cells, % of GMNN control: -4.47; Call: inactive

For DOK1 #3, what was measured?
G2 robust z-score: 0.601; G2 cells, % of GMNN control: 7.2; Call: inactive

Which result is listed for FCRL3 #1?
G2 robust z-score: 4.31; G2 cells, % of GMNN control: 33.3; Call: inactive

With FCRL3 #2, what does the deposit list?
G2 robust z-score: 0.779; G2 cells, % of GMNN control: 8.45; Call: inactive

For FCRL3 #3, how do the results read?
G2 robust z-score: -0.297; G2 cells, % of GMNN control: 0.879; Call: inactive

What is on record for MYCBPAP #1?
G2 robust z-score: -1; G2 cells, % of GMNN control: -4.1; Call: inactive

Which result is listed for MYCBPAP #2?
G2 robust z-score: 1.43; G2 cells, % of GMNN control: 13; Call: inactive

Which result is listed for MYCBPAP #3?
G2 robust z-score: 0.0513; G2 cells, % of GMNN control: 3.33; Call: inactive

A portion of the results above:
TSHZ2 #1 → G2 robust z-score = 0.441; G2 cells, % of GMNN control = 6.07; Call = inactive
TSHZ2 #2 → G2 robust z-score = -0.796; G2 cells, % of GMNN control = -2.63; Call = inactive
TSHZ2 #3 → G2 robust z-score = -1.19; G2 cells, % of GMNN control = -5.4; Call = inactive
